Experimental data taken from patent US7374875B2, “Peptides having affinity for the gp120 viral protein and use thereof” (priority 2001, dated 2008).
Like-named read-outs stand apart in the source and are kept apart here. At least one peptide structure holds a part that was inferred or is arguable (an end, a ring closure or a residue). Bridge positions count the residues as written; N and C are the ends. Peptide text beside a SMILES is read from it.

How the values were obtained:
gp120HXB2 = biological target: T1, gp120HXB2 (Human immunodeficiency virus type 1 group M subtype B, UniProt P04578); assay: Competition indirect ELISA, inhibition of gp120HXB2-soluble CD4 interaction; conditions: read-out: IC50, inhibition of gp120HXB2-soluble CD4 interaction
T1 construct: the wild-type gp120 viral protein is concentrated and directly purified from the culture supernatant; signal peptide of the ecdysteroid glycosyltransferase of Autographa californica baculovirus (N); made in house; host or cells: Sf9 insect cells, recombinant baculovirus

gp120LAI [1] = biological target: T2, gp120LAI (Human immunodeficiency virus type 1 group M subtype B, UniProt P03377); assay: Competition indirect ELISA, inhibition of rgp120LAI-soluble CD4 interaction
T2 construct: protein gp120LAI and gp120HXB2

gp120LAI [2] = biological target: T2, gp120LAI; conditions: read-out: IC50, inhibition of rgp120LAI-soluble CD4 interaction, reference [4]; cited from earlier work
[3] = read-out: IC50, inhibition of gp120LAI-CD4 interaction

SMILES | IC50 (gp120HXB2) | increase in the inhibition capacity compared to CD4M3 (gp120LAI [1]; gp120LAI) | IC50 (gp120LAI [1]; [3]) | IC50 (gp120LAI [1]; read-out: IC50 (gp120LAI), soluble recombinant CD4, standard deviation less than 30%) | IC50 (gp120LAI [2])
CC(C)C[C@@H]1NC(=O)CNC(=O)[C@H](CC(C)C)NC(=O)[C@H](CO)NC(=O)[C@H](CCCCN)NC(=O)[C@@H]2CSSC[C@@H](C(=O)NCC(=O)N3CCC[C@H]3C(N)=O)NC(=O)[C@H](C)NC(=O)[C@@H]3CSSC[C@H](NC(=O)[C@H](CCCNC(=N)N)NC(=O)[C@H](C)NC(=O)[C@H](CC(C)C)NC(=O)[C@H](CC(N)=O)NC(=O)[C@@H](N)CSSC[C@H](NC(=O)[C@H](CCCCN)NC(=O)CNC(=O)[C@H](CC(C)C)NC1=O)C(=O)N[C@@H](C)C(=O)NCC(=O)N[C@@H](CO)C(=O)N[C@@H](Cc1ccccc1)C(=O)N3)C(=O)N[C@@H](CCC(N)=O)C(=O)N[C@@H](CC(C)C)C(=O)N[C@@H](CCCNC(=N)N)C(=O)N2 [CD4M9] | 90 nM | 50 fold | 400 nM | – | –
CC(C)C[C@@H]1NC(=O)CNC(=O)[C@H](CC(C)C)NC(=O)[C@H](CO)NC(=O)[C@H](CCCCN)NC(=O)[C@@H]2CSSC[C@@H](C(=O)N[C@H](C(N)=O)C(C)C)NC(=O)[C@H](C)NC(=O)[C@@H]3CSSC[C@H](NC(=O)[C@H](CCCNC(=N)N)NC(=O)[C@H](C)NC(=O)[C@H](CC(C)C)NC(=O)[C@H](CC(N)=O)NC(=O)[C@@H](N)CSSC[C@H](NC(=O)[C@H](CCCCN)NC(=O)CNC(=O)[C@H](CC(C)C)NC1=O)C(=O)N[C@@H](C)C(=O)NCC(=O)N[C@@H](CO)C(=O)N[C@@H](Cc1ccccc1)C(=O)N3)C(=O)N[C@@H](CCC(N)=O)C(=O)N[C@@H](CC(C)C)C(=O)N[C@@H](CCCNC(=N)N)C(=O)N2 [CD4M9V] (H-CNLARCQLRCKSLGLLGKCAGSFCACV-NH2; disulfide 1-19, 6-24, 10-26 (inferred); N-terminus and C-terminus assumed) | – | – | 300 nM | – | –
CC(C)C[C@@H]1NC(=O)CNC(=O)[C@H](CC(C)C)NC(=O)[C@H](CO)NC(=O)[C@H](CCCCN)NC(=O)[C@@H]2CSSC[C@@H](C(=O)NCC(N)=O)NC(=O)[C@H]([C@@H](C)O)NC(=O)[C@@H]3CSSC[C@H](NC(=O)[C@H](CCCNC(=N)N)NC(=O)[C@H](C)NC(=O)[C@H](CC(C)C)NC(=O)[C@H](CC(N)=O)NC(=O)[C@@H](N)CSSC[C@H](NC(=O)CNC(=O)CNC(=O)[C@H](CCCCN)NC1=O)C(=O)N[C@@H](CCC(N)=O)C(=O)NCC(=O)N[C@@H](CO)C(=O)N[C@@H](Cc1ccccc1)C(=O)N3)C(=O)N[C@@H](CCC(N)=O)C(=O)N[C@@H](CC(C)C)C(=O)N[C@@H](CO)C(=O)N2 [CD4M3] (H-CNLARCQLSCKSLGLKGGCQGSFCTCG-NH2; disulfide 1-19, 6-24, 10-26) | – | – | – | 20000 nM | 20000 nM
